Assay results: the supplement of paper PMC10849652
Some of the results follow.

The chains behind the UniProt entries cited, without tags or fusion partners. Where a name states a change or a piece, a line headed by the entry shows the natural chain unless it says otherwise.
UniProt Q8NFX7: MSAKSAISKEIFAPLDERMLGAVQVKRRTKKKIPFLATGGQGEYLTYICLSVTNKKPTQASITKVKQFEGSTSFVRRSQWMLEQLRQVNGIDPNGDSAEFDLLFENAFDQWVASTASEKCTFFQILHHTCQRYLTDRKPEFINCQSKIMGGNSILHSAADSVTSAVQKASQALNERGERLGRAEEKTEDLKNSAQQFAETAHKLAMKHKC
UniProt Q8N300: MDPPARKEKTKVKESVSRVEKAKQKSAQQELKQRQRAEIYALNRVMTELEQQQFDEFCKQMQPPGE
UniProt Q6UWL2: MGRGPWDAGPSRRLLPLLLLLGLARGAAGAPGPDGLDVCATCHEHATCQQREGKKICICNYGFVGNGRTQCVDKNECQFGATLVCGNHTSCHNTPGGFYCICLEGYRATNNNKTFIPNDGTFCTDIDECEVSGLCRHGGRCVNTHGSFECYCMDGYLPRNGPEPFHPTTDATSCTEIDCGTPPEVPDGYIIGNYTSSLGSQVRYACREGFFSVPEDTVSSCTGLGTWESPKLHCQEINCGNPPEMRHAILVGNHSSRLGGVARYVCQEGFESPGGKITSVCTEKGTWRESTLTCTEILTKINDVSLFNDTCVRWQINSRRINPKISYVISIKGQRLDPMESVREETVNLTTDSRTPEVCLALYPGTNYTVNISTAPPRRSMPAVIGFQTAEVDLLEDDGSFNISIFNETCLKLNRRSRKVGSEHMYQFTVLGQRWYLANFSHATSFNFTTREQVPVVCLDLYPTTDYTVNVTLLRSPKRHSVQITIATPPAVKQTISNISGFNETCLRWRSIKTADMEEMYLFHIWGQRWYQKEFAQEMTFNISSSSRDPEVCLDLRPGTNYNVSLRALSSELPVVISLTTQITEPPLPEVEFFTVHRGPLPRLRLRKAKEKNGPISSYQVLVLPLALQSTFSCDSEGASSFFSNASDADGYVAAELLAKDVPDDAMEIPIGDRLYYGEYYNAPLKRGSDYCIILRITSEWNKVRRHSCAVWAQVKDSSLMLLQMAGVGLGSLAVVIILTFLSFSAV
UniProt Q9Y6Q2: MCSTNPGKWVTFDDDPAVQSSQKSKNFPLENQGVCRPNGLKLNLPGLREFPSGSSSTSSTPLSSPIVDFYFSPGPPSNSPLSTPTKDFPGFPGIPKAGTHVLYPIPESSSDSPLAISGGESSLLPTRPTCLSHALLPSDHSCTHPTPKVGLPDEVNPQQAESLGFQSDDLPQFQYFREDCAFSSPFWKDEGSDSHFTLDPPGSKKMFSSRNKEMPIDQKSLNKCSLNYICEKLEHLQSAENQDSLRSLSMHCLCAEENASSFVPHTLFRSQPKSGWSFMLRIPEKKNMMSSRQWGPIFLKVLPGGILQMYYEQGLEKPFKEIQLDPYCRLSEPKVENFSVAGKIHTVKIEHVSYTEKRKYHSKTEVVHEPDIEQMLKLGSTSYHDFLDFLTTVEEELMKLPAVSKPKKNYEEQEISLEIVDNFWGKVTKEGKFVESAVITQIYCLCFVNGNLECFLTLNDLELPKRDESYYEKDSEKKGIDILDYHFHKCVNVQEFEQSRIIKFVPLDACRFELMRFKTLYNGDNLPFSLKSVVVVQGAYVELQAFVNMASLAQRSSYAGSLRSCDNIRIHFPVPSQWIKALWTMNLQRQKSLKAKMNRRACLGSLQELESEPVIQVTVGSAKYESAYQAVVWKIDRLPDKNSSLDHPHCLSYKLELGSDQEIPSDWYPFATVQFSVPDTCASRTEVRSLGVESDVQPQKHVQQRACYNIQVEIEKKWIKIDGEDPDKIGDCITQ
UniProt Q6PIF2: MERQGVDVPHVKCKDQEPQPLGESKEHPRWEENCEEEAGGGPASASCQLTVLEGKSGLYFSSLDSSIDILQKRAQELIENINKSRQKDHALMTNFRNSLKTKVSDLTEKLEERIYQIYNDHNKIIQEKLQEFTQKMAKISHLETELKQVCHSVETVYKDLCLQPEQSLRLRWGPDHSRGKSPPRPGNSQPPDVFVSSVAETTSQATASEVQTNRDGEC
UniProt P08842: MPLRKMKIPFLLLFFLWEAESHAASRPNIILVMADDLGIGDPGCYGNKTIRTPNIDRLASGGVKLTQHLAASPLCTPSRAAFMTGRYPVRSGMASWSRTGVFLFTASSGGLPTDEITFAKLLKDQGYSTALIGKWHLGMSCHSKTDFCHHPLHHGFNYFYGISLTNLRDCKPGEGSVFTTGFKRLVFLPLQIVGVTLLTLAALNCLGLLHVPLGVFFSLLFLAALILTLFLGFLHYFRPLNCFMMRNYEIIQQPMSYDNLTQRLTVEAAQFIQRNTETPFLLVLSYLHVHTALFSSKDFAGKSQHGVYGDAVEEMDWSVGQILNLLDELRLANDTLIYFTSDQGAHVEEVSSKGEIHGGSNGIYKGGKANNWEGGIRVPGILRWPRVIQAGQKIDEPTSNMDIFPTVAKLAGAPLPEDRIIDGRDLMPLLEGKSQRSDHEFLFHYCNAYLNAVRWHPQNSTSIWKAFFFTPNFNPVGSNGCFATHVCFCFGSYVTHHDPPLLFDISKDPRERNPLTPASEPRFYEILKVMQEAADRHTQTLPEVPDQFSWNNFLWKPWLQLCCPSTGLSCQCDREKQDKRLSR
UniProt Q53T94: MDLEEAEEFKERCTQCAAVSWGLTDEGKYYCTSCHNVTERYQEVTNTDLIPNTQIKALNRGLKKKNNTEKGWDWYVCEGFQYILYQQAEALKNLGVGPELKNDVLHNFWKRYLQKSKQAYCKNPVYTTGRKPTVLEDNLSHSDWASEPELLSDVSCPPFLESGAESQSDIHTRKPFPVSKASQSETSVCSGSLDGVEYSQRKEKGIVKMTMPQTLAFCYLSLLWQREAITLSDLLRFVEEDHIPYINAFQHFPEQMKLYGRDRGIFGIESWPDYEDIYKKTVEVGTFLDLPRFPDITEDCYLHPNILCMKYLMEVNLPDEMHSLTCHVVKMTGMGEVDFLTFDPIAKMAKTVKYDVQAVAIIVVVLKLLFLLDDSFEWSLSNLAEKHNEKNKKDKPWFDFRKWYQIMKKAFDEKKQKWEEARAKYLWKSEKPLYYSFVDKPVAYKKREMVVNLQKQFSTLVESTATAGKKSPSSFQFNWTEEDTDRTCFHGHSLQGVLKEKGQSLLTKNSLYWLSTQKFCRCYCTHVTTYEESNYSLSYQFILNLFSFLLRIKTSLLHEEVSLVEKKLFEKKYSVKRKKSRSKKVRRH
UniProt Q9UMX1: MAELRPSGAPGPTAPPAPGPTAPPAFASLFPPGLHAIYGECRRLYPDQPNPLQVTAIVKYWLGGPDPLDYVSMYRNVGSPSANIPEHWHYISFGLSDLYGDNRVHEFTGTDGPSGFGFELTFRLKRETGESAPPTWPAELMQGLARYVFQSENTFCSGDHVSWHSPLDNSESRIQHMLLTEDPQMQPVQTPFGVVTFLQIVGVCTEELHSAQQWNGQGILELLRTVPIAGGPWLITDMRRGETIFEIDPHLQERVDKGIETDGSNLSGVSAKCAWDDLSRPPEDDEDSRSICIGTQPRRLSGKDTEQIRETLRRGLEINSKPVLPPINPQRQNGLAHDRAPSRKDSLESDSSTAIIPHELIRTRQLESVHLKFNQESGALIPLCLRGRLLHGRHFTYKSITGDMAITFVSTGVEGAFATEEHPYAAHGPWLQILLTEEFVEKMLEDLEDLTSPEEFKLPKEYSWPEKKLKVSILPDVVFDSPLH
UniProt Q96L08: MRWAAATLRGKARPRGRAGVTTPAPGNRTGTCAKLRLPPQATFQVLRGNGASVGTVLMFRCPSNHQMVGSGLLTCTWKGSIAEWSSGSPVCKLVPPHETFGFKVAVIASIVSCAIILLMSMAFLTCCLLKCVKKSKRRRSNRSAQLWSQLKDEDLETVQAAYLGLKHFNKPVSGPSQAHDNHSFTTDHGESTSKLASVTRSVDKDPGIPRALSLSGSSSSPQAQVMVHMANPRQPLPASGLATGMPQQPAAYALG
UniProt Q9UBS9: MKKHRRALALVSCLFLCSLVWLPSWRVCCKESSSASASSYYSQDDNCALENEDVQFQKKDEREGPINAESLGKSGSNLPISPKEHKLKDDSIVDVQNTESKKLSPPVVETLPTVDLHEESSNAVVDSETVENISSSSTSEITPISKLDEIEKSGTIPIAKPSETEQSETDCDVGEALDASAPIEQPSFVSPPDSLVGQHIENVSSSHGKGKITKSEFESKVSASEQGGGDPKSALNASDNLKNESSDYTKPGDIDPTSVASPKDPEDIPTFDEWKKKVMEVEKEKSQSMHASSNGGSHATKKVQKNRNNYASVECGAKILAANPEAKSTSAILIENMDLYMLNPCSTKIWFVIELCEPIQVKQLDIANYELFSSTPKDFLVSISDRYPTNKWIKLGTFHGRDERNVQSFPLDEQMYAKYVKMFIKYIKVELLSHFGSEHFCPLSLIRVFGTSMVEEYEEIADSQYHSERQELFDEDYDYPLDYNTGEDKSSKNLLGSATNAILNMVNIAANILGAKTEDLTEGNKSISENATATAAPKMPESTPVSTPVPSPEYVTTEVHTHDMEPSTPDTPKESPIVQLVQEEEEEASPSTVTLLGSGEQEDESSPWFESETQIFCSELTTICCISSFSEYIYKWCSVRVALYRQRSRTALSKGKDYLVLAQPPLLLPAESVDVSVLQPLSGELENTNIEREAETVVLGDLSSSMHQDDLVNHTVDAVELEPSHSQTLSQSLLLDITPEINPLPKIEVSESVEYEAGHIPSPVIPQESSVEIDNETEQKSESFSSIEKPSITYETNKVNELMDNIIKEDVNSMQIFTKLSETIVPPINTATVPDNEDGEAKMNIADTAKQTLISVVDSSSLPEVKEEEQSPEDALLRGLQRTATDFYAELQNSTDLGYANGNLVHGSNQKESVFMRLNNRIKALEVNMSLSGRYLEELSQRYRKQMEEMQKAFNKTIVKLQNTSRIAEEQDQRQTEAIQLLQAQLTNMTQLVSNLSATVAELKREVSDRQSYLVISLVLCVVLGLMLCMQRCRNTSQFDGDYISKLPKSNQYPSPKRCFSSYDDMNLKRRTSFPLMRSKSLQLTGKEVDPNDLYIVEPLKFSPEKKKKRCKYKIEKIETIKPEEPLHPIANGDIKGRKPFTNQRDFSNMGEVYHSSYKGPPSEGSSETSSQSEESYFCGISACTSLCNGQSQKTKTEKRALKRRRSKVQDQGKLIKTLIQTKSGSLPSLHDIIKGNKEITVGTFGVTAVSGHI
UniProt Q6NVH7: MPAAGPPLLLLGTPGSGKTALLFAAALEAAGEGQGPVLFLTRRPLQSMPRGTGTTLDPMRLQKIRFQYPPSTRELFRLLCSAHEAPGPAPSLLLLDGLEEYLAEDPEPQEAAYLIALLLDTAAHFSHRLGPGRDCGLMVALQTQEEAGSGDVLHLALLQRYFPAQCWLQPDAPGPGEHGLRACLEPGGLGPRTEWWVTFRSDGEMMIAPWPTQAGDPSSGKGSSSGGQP
UniProt O94901, whole entry, looked up: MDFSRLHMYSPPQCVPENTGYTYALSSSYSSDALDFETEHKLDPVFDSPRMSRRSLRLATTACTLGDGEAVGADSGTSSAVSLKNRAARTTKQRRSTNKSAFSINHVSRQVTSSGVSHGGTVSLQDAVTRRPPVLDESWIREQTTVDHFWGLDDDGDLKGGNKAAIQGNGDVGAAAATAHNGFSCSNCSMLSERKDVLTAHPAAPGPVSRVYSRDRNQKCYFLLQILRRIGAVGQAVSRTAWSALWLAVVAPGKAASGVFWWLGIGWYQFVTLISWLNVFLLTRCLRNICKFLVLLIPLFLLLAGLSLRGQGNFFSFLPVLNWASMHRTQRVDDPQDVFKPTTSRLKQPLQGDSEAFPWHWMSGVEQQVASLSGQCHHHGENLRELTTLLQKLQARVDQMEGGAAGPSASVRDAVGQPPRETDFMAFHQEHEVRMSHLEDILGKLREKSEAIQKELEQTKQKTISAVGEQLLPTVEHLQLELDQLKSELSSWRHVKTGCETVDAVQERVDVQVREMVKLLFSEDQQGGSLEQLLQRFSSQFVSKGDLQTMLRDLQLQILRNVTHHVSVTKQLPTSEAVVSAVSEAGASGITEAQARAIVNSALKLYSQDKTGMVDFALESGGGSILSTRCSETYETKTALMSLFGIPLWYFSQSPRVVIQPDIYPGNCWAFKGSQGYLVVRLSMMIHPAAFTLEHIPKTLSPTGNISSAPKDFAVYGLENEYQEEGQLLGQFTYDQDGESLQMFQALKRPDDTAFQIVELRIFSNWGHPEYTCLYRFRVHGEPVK
UniProt Q9C0K7: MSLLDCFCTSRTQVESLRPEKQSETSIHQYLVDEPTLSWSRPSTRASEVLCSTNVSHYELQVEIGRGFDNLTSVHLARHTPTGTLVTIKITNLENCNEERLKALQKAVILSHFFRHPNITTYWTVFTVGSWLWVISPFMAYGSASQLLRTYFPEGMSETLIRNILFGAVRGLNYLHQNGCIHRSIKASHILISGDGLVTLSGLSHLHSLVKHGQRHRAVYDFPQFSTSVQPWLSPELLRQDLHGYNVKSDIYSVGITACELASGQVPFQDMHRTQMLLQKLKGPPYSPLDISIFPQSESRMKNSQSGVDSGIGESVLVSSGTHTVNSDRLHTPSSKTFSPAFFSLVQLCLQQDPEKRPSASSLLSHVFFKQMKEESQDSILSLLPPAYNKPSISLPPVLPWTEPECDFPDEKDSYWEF

Experiments:
Experiment in all cases: log2 fold change, soluble protein after heating vs DMSO (PISA); higher = thermal stabilisation; K562 lysate, 10 uM; active = over 0.2 and 3.5 SD of the protein, either way, in both replicates (recomputed)
erlotinib = compound: C#Cc1cccc(Nc2ncnc3cc(OCCOC)c(OCCOC)cc23)c1 [erlotinib]
Summary of the method: (§1)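 Quantification was by TMTpro 16plex LC-MS/MS with equalised channel sums, applied to the supernatant after 21,000xg for 90 min. Samples were crude K562 extract at 1 mg/mL protein in PBS pH 7.4 with 1 mM MgCl2, treated with 10 μM compound for 30 min, heated for 3 min across 48°C-58°C, pooled and brought to 0.5% NP-40 at 4°C. Values are log-two fold changes in thermal stability relative to solvent controls, from duplicates.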

[1] = compound: C1=CC(=CC=C1C2=NC3=C(N2)C=C(C=C3)C(=O)N)OC4=CC=C(C=C4)Cl
Summary of the method: as §1

[2] = compound: C1=CC2=NC=CN=C2C=C1/C=C/3\C(=O)NC(=O)S3
Summary of the method: as §1

[3] = compound: C1=CC=C(C=C1)C2=NC(=C(N2)C3=CC=NC=C3)C4=CC(=C(C=C4)Cl)O
Summary of the method: as §1

IRAK-1-4 Inhibitor I = compound: C1COCCN1CCN2C3=CC=CC=C3N=C2NC(=O)C4=CC(=CC=C4)[N+](=O)[O-] [IRAK-1-4 Inhibitor I]
Summary of the method: as §1

ibrutinib = compound: C=CC(=O)N1CCC[C@@H](n2nc(-c3ccc(Oc4ccccc4)cc3)c3c(N)ncnc32)C1 [ibrutinib]
Summary of the method: as §1

ralimetinib = compound: CC(C)(C)Cn1c(N)nc2ccc(-c3[nH]c(C(C)(C)C)nc3-c3ccc(F)cc3)nc21 [ralimetinib]
Summary of the method: as §1

[4] = compound: CC(C)(O)CC(=O)NCCn1ccc2ncnc(Nc3ccc(Oc4cccc(C(F)(F)F)c4)c(Cl)c3)c21
Summary of the method: as §1

[5] = compound: CC(C)C1=C2N=C(C=C(N2N=C1)NCC3=CC=CC=C3)NCCCCCCN
Summary of the method: as §1

[6] = compound: CC1=C(C(CC(=O)N1)C2=CC=C(C=C2)C(F)(F)F)C(=O)NC3=C(C=C4C(=C3)C=NN4)F
Summary of the method: as §1

[7] = compound: CC1=C(C=C(C=C1)NC(=O)C2=CC(=CC=C2)C(C)(C)C#N)NC3=CC4=C(C=C3)N=CN(C4=O)C
Summary of the method: as §1

[8] = compound: CC1=C(C=C(C=C1)NC(=O)C2=CC(=CC=C2)N(C)C)NC(=O)C3=CC=C(C=C3)O
Summary of the method: as §1

[9] = compound: C1CCN(C1)C(=O)NC2=CC=CC(=C2)NC3=NC=C(C(=N3)NCCC4=CN=CN4)Br
Summary of the method: as §1

[10] = compound: C1CN(CCC1(CC2=CC=C(C=C2)Cl)N)C3=NC=NC4=C3C=CN4
Summary of the method: as §1

[11] = compound: CC1=C(C2=C(C=C1)C(=O)C3=CC=CC=C3N2CCCN)C
Summary of the method: as §1

[12] = compound: CC(=O)c1cnc2ccc(-c3cc(Cl)c(O)c(Cl)c3)nc2c1N[C@H]1CC[C@H](CN(C)C)CC1
Summary of the method: as §1

[13] = compound: CC1=CC=C(C=C1)SC2=C3C=C(SC3=CN=C2)C(=O)N
Summary of the method: as §1

[14] = compound: C/C(=N\NC(=O)C1=CC(=CC=C1)S(=O)(=O)N2CCOCC2)/C3=C(C=CC(=C3)Cl)O
Summary of the method: as §1

[15] = compound: C1=CC2=C(C=CC(=C2)/C=C\3/C(=O)NC(=NCC4=CC=CS4)S3)N=C1
Summary of the method: as §1

[16] = compound: C1=CC=C2C(=C1)C3=NNC4=CC=CC(=C43)C2=O
Summary of the method: as §1

Measured: log2 fold change

STXBP6 (UniProt Q8NFX7)
inactive: erlotinib -0.151 | [1] 0.021 | [2] 0.076 | [3] 0.122 | IRAK-1-4 Inhibitor I 0.068 | ibrutinib -0.054 | ralimetinib 0.053 | [4] 0.256 | [5] -0.097 | [6] 0.013 | [7] -0.051 | [8] -0.019

SVBP (UniProt Q8N300)
inactive: erlotinib 0.017 | [1] 0.134 | [3] -0.05 | [9] -0.031 | [10] 0.088 | IRAK-1-4 Inhibitor I 0.148 | ralimetinib 0.022 | [4] -0.034 | [5] -0.038 | [6] -0.055 | [7] 0.033 | [8] 0.058

STIMATE (UniProt Q86TL2)
inactive: [3] 0.023 | IRAK-1-4 Inhibitor I 0.13 | ralimetinib 0.047 | [4] 0.075 | [8] -0.045

SUSD1 isoform 2 (UniProt Q6UWL2)
inactive: erlotinib 0.177 | [1] -0.21 | [3] -0.017 | [9] -0.009 | [10] 0 | IRAK-1-4 Inhibitor I 0 | ralimetinib 0.122 | [4] -0.024 | [5] -0.101 | [11] 0.071 | [7] -0.027 | [8] 0.368

STON1 isoform 2 (UniProt Q9Y6Q2)
inactive: erlotinib -0.084 | [1] -0.108 | [3] -0.046 | IRAK-1-4 Inhibitor I -0.063 | [12] 0.042 | ralimetinib 0.054 | [4] -0.023 | [5] -0.005 | [6] 0.128 | [8] -0.14 | [13] -0.013

SYCE2 (UniProt Q6PIF2)
inactive: [7] 0.044

STS (UniProt P08842)
inactive: [14] -0.152 | [15] 0.041 | [2] 0.35 | [3] 0.059 | [16] 0.057 | IRAK-1-4 Inhibitor I -0.171 | ibrutinib 0.036 | ralimetinib -0.123 | [4] -0.1 | [6] 0.055 | [7] 0.023 | [8] 0.281

STK26 isoform 3 (UniProt Q9P289)
inactive: [9] 0.272 | [10] -0.045 | [11] -0.157 | [7] -0.146

Reprinted from the results shown (4 entries):
SVBP (UniProt Q8N300)
inactive: erlotinib 0.017 | [1] 0.134 | [3] -0.05 | [9] -0.031 | [10] 0.088 | IRAK-1-4 Inhibitor I 0.148 | ralimetinib 0.022 | [4] -0.034 | [5] -0.038 | [6] -0.055 | [7] 0.033 | [8] 0.058

STIMATE (UniProt Q86TL2)
inactive: [3] 0.023 | IRAK-1-4 Inhibitor I 0.13 | ralimetinib 0.047 | [4] 0.075 | [8] -0.045

SUSD1 isoform 2 (UniProt Q6UWL2)
inactive: erlotinib 0.177 | [1] -0.21 | [3] -0.017 | [9] -0.009 | [10] 0 | IRAK-1-4 Inhibitor I 0 | ralimetinib 0.122 | [4] -0.024 | [5] -0.101 | [11] 0.071 | [7] -0.027 | [8] 0.368

STON1 isoform 2 (UniProt Q9Y6Q2)
inactive: erlotinib -0.084 | [1] -0.108 | [3] -0.046 | IRAK-1-4 Inhibitor I -0.063 | [12] 0.042 | ralimetinib 0.054 | [4] -0.023 | [5] -0.005 | [6] 0.128 | [8] -0.14 | [13] -0.013

Continuation:

TAF1B (UniProt Q53T94)
inactive: [14] -0.283 | [15] -0.123 | [2] -0.001 | [3] 0.024 | [16] 0.013 | [9] 0.345 | [10] 0.123 | IRAK-1-4 Inhibitor I -0.061 | ibrutinib -0.156 | [12] 0.095 | ralimetinib 0.043 | [4] -0.112 | [6] 0.419 | [11] -0.101 | [7] 0.032 | [8] 0.006 | [13] 0.138

SUFU (UniProt Q9UMX1)
inactive: [14] -0.222 | [15] -0.02 | [3] 0.014 | [16] 0.164 | IRAK-1-4 Inhibitor I 0.06 | [12] -0.034 | ralimetinib -0.083 | [4] -0.045 | [7] -0.022 | [8] -0.067 | [13] 0.025

SYTL2 isoform 8 (UniProt Q9HCH5)
inactive: [2] -0.052 | ibrutinib -0.108 | [12] -0.342 | [11] -0.141 | [13] -0.121

SUSD3 (UniProt Q96L08)
inactive: erlotinib -0.057 | [1] -0.231 | [3] 0.101 | IRAK-1-4 Inhibitor I -0.038 | [12] -0.328 | ralimetinib 0.086 | [4] -0.046 | [5] 0.012 | [8] 0.06 | [13] 0.081

SUPT5H isoform 2 (UniProt O00267)
inactive: [14] -0.278 | [15] -0.007 | [2] 0.101 | [16] -0.274 | ibrutinib -0.119 | [12] 0 | [6] 0.032 | [11] 0.102 | [7] 0.059 | [13] -0.024

SYNGR2 (UniProt K7EJ35)
inactive: [6] -0.13

SUCO isoform 2 (UniProt Q9UBS9)
inactive: [14] -0.154 | [15] 0.004 | [3] 0.126 | [16] -0.061 | [9] -0.078 | [10] -0.01 | IRAK-1-4 Inhibitor I 0.133 | ralimetinib -0.073 | [4] 0.151 | [7] -0.028 | [8] 0.033

SWSAP1 (UniProt Q6NVH7)
inactive: erlotinib 0.014 | [1] -0.145 | [3] 0.001 | IRAK-1-4 Inhibitor I -0.038 | ralimetinib -0.001 | [4] 0.013 | [5] -0.112 | [6] -0.147 | [11] -0.166 | [8] 0.096

SUN1 isoform 9 (UniProt O94901)
inactive: [3] 0.074 | IRAK-1-4 Inhibitor I 0.194 | ralimetinib 0.106 | [4] -0.258 | [8] 0.028

STRADB (UniProt Q9C0K7)
inactive: erlotinib -0.4 | [1] 0.497 | [5] 0.102

SUPT3H (UniProt O75486)
inactive: erlotinib -0.063 | [1] 0.035 | [3] 0.003 | [9] 0.024 | [10] -0.068 | IRAK-1-4 Inhibitor I 0.146 | [12] 0.048 | ralimetinib -0.003 | [4] -0.047 | [5] 0.066 | [7] -0.014 | [8] -0.019 | [13] -0.018
